These are yes or no findings as the source states them, for the method shown. Binding seen in cells or lysates may run through a third protein. Some results given as binding are weak or reduced against the parent protein; the word gives no strength.
Legend:
[1] = target: TET1 (UniProt Q8NFU7); assay: co-immunoprecipitation from THP1 cells, Western blot
[2] = target: TET1 (UniProt Q8NFU7); assay: co-immunoprecipitation from HEK293T cells, Western blot
[3] = target: TET1 (UniProt Q8NFU7); assay: co-immunoprecipitation with anti-GFI1 antibody, Western blot

Chains of the proteins cited; added tags and fusions are not shown.
UniProt Q8NFU7: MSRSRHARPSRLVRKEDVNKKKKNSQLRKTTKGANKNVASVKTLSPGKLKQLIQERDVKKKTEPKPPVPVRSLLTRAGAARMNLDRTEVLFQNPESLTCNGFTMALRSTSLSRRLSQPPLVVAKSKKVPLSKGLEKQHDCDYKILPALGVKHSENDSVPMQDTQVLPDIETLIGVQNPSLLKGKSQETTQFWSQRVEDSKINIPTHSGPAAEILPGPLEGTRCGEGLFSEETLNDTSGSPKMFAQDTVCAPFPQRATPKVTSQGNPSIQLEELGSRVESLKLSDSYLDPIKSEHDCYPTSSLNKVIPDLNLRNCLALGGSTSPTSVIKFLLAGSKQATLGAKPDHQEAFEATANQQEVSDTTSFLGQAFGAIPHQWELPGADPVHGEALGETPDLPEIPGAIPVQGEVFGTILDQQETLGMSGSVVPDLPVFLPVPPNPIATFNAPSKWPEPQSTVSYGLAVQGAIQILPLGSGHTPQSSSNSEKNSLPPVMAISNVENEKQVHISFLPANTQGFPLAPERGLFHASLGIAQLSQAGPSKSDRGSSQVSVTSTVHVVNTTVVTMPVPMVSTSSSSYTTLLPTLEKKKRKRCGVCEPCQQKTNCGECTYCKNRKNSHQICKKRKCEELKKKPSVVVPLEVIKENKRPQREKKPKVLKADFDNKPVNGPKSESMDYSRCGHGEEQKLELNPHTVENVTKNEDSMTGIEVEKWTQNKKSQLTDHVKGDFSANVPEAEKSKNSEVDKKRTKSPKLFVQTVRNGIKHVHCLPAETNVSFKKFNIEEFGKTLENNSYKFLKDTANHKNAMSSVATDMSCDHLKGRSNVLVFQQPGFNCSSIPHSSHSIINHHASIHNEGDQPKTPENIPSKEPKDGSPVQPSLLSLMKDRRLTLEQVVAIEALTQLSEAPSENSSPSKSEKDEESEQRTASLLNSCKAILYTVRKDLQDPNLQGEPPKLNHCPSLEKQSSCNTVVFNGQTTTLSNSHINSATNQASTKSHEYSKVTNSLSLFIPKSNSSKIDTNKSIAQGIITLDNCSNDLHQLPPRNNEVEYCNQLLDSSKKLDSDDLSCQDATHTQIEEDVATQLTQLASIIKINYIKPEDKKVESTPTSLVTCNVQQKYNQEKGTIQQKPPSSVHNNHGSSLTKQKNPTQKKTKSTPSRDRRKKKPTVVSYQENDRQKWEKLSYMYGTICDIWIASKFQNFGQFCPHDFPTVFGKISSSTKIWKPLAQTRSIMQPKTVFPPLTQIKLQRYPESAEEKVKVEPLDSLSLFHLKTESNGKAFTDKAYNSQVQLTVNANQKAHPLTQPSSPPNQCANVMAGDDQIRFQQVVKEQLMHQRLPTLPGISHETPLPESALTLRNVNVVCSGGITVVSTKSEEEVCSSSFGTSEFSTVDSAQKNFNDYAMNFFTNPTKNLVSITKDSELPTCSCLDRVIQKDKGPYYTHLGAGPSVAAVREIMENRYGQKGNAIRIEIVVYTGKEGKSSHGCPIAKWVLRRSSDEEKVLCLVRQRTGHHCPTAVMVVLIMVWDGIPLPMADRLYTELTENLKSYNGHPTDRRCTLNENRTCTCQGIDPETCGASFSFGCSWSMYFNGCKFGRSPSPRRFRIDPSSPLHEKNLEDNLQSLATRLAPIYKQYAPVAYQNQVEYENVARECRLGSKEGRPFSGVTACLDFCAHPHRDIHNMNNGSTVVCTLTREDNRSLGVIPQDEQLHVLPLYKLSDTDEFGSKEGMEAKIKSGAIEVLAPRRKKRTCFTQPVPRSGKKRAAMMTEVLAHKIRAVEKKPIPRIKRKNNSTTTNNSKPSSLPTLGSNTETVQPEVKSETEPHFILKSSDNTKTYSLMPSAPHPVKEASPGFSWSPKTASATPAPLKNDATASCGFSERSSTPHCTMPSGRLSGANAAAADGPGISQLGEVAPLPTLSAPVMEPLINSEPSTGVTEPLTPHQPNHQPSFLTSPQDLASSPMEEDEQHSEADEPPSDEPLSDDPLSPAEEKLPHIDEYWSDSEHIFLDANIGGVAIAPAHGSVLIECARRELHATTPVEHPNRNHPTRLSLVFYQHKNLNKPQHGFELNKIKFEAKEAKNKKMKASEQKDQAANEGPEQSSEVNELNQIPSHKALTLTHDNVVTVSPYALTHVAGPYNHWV
UniProt Q99684: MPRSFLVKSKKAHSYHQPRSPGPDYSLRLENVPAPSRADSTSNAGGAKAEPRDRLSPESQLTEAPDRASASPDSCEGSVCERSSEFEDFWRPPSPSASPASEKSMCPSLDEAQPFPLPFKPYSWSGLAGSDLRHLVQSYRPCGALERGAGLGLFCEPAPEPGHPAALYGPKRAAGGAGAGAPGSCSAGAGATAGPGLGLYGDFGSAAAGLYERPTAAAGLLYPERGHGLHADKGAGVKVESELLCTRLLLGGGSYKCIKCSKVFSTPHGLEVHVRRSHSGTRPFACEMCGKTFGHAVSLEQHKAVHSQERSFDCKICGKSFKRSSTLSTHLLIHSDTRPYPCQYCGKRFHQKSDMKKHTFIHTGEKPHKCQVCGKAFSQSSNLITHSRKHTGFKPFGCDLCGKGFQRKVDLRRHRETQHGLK

Measured: binding

GFI1 (from UniProt Q99684 1-422)
binds: all assays above

From patent US20180119150A1
